Measured values published in patent US20260159549A1.
These are yes or no findings as the source states them, for the method shown. Some results given as binding are weak or reduced against the parent protein; the word gives no strength.

Columns and labels:
PLPx6 [1] = biological target: T1, PLPx6; assay: specificity test of the six designs (method not given; BLI elsewhere)
T1 sequence (peptide): PLPPLPPLPPLPPLPPLP

PLPx6 [2] = biological target: T1, PLPx6; assay: repeat number series, method not named
PLPx4 = biological target: T2, PLPx4; assay: repeat number series, method not named
T2 sequence (peptide): PLPPLPPLPPLP

PLPx6 [3] = biological target: T1, PLPx6; assay: flow cytometry, binder on yeast after 1-3 SSM substitutions, biotinylated peptide
PLPx6 [4] = biological target: T1, PLPx6; assay: co-crystal structure; affinity told in words

Measured: binding

B1: RPB_PLP1_R6 (designed binder)
chain: PEEERIKYVITVVEQIAKDAHRNGQEELAKLAERTAEEAKKATERGEEETLRIVYVIVVVLQIALEAHRNGQEELAKLALRTAEEAIKATERGEEETLRIVYVIVVVLQIALEAHRNGQEELAKLALRTAEEAIKATERGEEETLRIVYVIVVVLQIALEAHRNGQEELAKLALRTAEEAIKATERGEEETLRIVYVIVVVLQIALEAHRNGQEELAKLALRTAEEAIKATERGEEETERIVYDIVVVLQEALEAHRNGEEERAKKALDEARRRIEATERGE
binds: all assays above
